Key:
[1] = FET on PEN foil, vapor deposited semiconductor, PVA dielectric (Example 5); details: Example 5: vapor deposited, gold source/drain, PVA about 2 μ, carbon paint gate
[2] = FET charge carrier mobility, Si/SiO2/PTTP composition/Au, saturation regime (Examples 1, 2)
[3] = FET on PEN foil, spin coated semiconductor, PVA dielectric, linear regime (Examples 3-4)
[4] = drop casting, Si/SiO2/PTTP composition/Au
[5] = Example 2, sublimed at 70° C. onto silicon dioxide, gold electrodes
[6] = Example 3 additional FET: gold source/drain, 3% w/w in THF, PVA about 3.5 μ, annealed 150° C. 15 minutes
[7] = Example 4: 0.5% w/w in THF with 1% by weight polystyrene, laser-patterned electrodes, PVA about 3,500 nm

With `CCCOCCc1ccc(-c2ccc(-c3ccc(-c4ccc(CCOCCC)cc4)s3)s2)cc1` [3O2PTTP2O3, 5,5′-Bis(4-(propxyethyl)phenyl)-2,2′-bithiophene] as the molecule, how does the “mobility of the FET” value [1] read?
The value was 3×10^−3 cm^2/Vs.

What about the on/off ratio [1] of the same molecule?
The on/off ratio was 27.1.

With `CCC(CC)COc1ccc(-c2ccc(-c3ccc(-c4ccc(OCC(CC)CC)cc4)s3)s2)cc1` [4(2Et)-O-PTTP-O-4(2Et), 5,5′-bis(4-(2-ethylbutyloxy)phenyl)-2,2′-bithiophene] as the molecule, how does the “mobility μ” value [2, 4] read?
The value was 10^−6-5×10^−5 cm^2/Vs.

With `CCCCCC(CC)Oc1ccc(-c2ccc(-c3ccc(-c4ccc(OC(CC)CCCCC)cc4)s3)s2)cc1` (centres unmarked) [6(1Et)-O-PTTP-O-6(1Et), 5,5′-Bis-[4-(1-ethyl-hexyloxy)-phenyl]-[2,2′]bithiophenyl] as the molecule, how does the “mobility μ” value ([2]; sublimed films at 70° C., Si/SiO2/PTTP composition/Au) read?
The value was 4.4×10^−7 cm^2/Vs.

For `CCCCCC(C)Oc1ccc(-c2ccc(-c3ccc(-c4ccc(OC(C)CCCCC)cc4)s3)s2)cc1` (centres unmarked) [6(1Me)-O-PTTP-O-6(1Me), 5,5′bis(4-(1-methylhexyloxy)phenyl)-2,2′-bithiophene], which “mobility μ” value [2, 5] is on record?
Its value is 1×10^−3 cm^2/Vs.

And the “mobility of the FET” value ([3]; Example 3: PEDOT source/drain, 5% w/w solution in THF, PVA about 1.4 μ)?
The value was 1×10^−3 cm^2/Vs.

What about the on/off ratio ([3]; Example 3: PEDOT source/drain, 5% w/w solution in THF, PVA about 1.4 μ, from output characteristic) of the same molecule?
The on/off ratio was 190.

And the “mobility of the FET” value [3, 6]?
The value was 4.8×10^−3 cm^2/Vs.

What about the on/off ratio [3, 6] of the same molecule?
Its on/off ratio is 6.

And the “mobility of the FET” value [3, 7]?
The value was 7×10^−3 cm^2/Vs.

And the on/off ratio [3, 7]?
The on/off ratio was 20.

With `CCCCC(CC)COc1ccc(-c2ccc(-c3ccc(-c4ccc(OCC(CC)CCCC)cc4)s3)s2)cc1` (centres unmarked) [6(2Et)-O-PTTP-O-6(2Et), 5,5′-bis(4-(2-ethylhexyloxy)phenyl)-2,2′-bithiophene] as the molecule, how does the “mobility μ” value [2, 4] read?
Its value is 5×10^−8-7×10^−7 cm^2/Vs.

For `CCCCCC(C)Cc1ccc(-c2ccc(-c3ccc(-c4ccc(CC(C)CCCCC)cc4)s3)s2)cc1` (centres unmarked) [7(2Me)-PTTP-7(2Me), 5,5′-bis(4-(2-methylheptyl)phenyl)-2,2′-bithiophene, reference compound], which “mobility μ” value [2, 5] is on record?
The value was 4×10^−4 cm^2/Vs.

With `CC(C)CCCC(C)CCOc1ccc(-c2ccc(-c3ccc(-c4ccc(OCCC(C)CCCC(C)C)cc4)s3)s2)cc1` (centres unmarked) [8(3,7Me)-O-PTTP-O-8(3,7Me), 5,5′-bis(4-(3,7-dimethyloctyloxy)phenyl)-2,2′-bithiophene] as the molecule, how does the “mobility μ” value [2, 4] read?
Its value is 6×10^−6-5×10^−5 cm^2/Vs.
